Article PMC4564277
Weaker means in comparison with the reference protein, sequence or condition of that experiment. For some of these results: The exact form of at least one protein or probe is not confirmed. For some of these results: At least one verdict was read from the data and is not stated in words by the source.

By UniProt entry, the sequences of proteins in these tests, tags left out. Residues count along the entry.
UniProt O24606, 82-352: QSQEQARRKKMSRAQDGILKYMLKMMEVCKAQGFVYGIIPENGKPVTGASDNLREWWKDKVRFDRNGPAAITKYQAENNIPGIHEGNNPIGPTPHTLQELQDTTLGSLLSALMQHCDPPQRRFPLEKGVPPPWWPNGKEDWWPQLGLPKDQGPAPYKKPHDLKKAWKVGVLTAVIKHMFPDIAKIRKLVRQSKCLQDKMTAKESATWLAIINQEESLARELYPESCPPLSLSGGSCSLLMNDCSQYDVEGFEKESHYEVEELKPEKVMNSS
UniProt O24606, 174-306: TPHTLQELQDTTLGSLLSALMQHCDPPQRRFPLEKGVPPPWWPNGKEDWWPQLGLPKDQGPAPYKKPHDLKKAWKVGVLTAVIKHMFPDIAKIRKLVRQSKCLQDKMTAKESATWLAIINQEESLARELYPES
UniProt O24606, 91-306: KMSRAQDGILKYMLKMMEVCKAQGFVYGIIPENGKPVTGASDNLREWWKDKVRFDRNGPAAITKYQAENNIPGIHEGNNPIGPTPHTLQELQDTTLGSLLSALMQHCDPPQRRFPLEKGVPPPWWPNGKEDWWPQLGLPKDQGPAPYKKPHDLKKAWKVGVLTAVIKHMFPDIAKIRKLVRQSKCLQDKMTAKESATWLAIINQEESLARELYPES
UniProt O24606, 114-352: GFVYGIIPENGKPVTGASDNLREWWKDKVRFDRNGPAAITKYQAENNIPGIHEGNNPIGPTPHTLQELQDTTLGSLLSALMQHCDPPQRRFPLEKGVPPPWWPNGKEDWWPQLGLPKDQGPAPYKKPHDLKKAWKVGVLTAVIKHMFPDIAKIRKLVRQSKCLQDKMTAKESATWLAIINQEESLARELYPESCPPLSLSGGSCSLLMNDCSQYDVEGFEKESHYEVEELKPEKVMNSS
UniProt O24606, 141-352: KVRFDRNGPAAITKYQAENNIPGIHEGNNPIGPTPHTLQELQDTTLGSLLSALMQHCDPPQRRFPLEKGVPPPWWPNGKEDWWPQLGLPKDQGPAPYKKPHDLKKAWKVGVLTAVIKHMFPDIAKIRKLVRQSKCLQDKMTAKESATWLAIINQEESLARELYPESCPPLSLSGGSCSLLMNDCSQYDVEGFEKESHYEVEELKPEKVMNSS
UniProt O24606, 35-352: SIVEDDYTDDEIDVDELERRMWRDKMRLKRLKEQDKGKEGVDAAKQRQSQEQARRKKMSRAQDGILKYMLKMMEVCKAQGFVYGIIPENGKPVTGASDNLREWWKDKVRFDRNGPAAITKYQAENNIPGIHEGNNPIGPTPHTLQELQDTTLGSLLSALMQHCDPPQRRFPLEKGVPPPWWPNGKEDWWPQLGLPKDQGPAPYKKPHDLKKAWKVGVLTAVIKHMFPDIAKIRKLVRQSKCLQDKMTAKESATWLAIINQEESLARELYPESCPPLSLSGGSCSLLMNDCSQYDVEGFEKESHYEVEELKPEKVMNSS
UniProt O24606, 46-352: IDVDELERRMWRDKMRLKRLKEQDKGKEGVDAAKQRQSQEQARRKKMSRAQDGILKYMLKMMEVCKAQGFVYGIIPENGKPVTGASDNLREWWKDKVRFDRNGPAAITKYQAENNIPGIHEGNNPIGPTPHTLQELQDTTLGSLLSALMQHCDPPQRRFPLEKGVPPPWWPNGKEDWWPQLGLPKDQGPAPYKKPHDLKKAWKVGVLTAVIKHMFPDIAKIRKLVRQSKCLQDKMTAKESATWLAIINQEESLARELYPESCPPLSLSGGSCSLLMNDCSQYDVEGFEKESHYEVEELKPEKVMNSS

Key:
Assay in all cases: EMSA
[1] = biological target: EIN3 82-352 (optimal DBD) (Arabidopsis thaliana) (UniProt O24606); conditions: EMSA: 1 nM biotin probe, 10 mM Tris-HCl pH 7.5, 40 mM KCl, 3 mM MgCl2, 1 mM EDTA, 10% glycerol, 1 mM DTT, 1 ug poly(dI-dC) in 20 uL, room temperature, 30 min; recombinant protein; residues 82-352; protein details: N-terminal His6 (pET-28a); label: 3' biotin on forward strand
[2] = biological target: EIN3 174-306 (core DBD) (Arabidopsis thaliana) (UniProt O24606); conditions: EMSA: 1 nM biotin probe, 10 mM Tris-HCl pH 7.5, 40 mM KCl, 3 mM MgCl2, 1 mM EDTA, 10% glycerol, 1 mM DTT, 1 ug poly(dI-dC) in 20 uL, room temperature, 30 min; recombinant protein; residues 174-306; protein details: N-terminal His6 (pET-28a); label: 3' biotin on forward strand
[3] = biological target: EIN3 91-306 (Arabidopsis thaliana) (UniProt O24606); conditions: EMSA: 1 nM biotin probe, 10 mM Tris-HCl pH 7.5, 40 mM KCl, 3 mM MgCl2, 1 mM EDTA, 10% glycerol, 1 mM DTT, 1 ug poly(dI-dC) in 20 uL, room temperature, 30 min; recombinant protein; residues 91-306; protein details: N-terminal His6 (pET-28a); label: 3' biotin on forward strand
[4] = biological target: EIN3 114-352 (Arabidopsis thaliana) (UniProt O24606); conditions: EMSA: 1 nM biotin probe, 10 mM Tris-HCl pH 7.5, 40 mM KCl, 3 mM MgCl2, 1 mM EDTA, 10% glycerol, 1 mM DTT, 1 ug poly(dI-dC) in 20 uL, room temperature, 30 min; recombinant protein; residues 114-352; protein details: N-terminal His6 (pET-28a); label: 3' biotin on forward strand
[5] = biological target: EIN3 141-352 (Arabidopsis thaliana) (UniProt O24606); conditions: EMSA: 1 nM biotin probe, 10 mM Tris-HCl pH 7.5, 40 mM KCl, 3 mM MgCl2, 1 mM EDTA, 10% glycerol, 1 mM DTT, 1 ug poly(dI-dC) in 20 uL, room temperature, 30 min; recombinant protein; residues 141-352; protein details: N-terminal His6 (pET-28a); label: 3' biotin on forward strand
[6] = biological target: EIN3 35-352 (Arabidopsis thaliana) (UniProt O24606); conditions: EMSA: 1 nM biotin probe, 10 mM Tris-HCl pH 7.5, 40 mM KCl, 3 mM MgCl2, 1 mM EDTA, 10% glycerol, 1 mM DTT, 1 ug poly(dI-dC) in 20 uL, room temperature, 30 min; recombinant protein; residues 35-352; protein details: N-terminal His6 (pET-28a); label: 3' biotin on forward strand
[7] = biological target: EIN3 46-352 (Arabidopsis thaliana) (UniProt O24606); conditions: EMSA: 1 nM biotin probe, 10 mM Tris-HCl pH 7.5, 40 mM KCl, 3 mM MgCl2, 1 mM EDTA, 10% glycerol, 1 mM DTT, 1 ug poly(dI-dC) in 20 uL, room temperature, 30 min; recombinant protein; residues 46-352; protein details: N-terminal His6 (pET-28a); label: 3' biotin on forward strand

| Sequence | binding result [1] | other results |
| --- | --- | --- |
| AAGATACATGCGCAAGCGCATGTATCTT (double strand) [GCGC-S10] | binds |  |
| AAGATACATGCAAGCATGTATCTT (double strand) [2EBS-S6] | binds more weakly |  |
| AAGATACATGCAAAAAAAAAAGCATGTATCTT (double strand) [2EBS-S14] | binds more weakly |  |
| GTTGTTTGGGATTCAAGGGGCATGTATCTT (double strand) [ERF1 3-6] | binds |  |
| AAGATACATGCAAAAAAAGCATGTATCTT (double strand) [2EBS-S11] | binds more weakly |  |
| AAGATACATTATAAATATAATGTATCTT (double strand) [TATA-S10] | binds |  |
| AAGATACATGCAAAAAAAAAGCATGTATCTT (double strand) [2EBS-S13] | binds more weakly |  |
| AAGATACATGCAAAAAAAAAAAGCATGTATCTT (double strand) [2EBS-S15] | binds more weakly |  |
| AAGATACATGCAAAGCATGTATCTT (double strand) [2EBS-S7] | binds more weakly |  |
| AAGATACATGCAAAAAGCATGTATCTT (double strand) [2EBS-S9] | binds more weakly |  |
| AAGATACATGCAAAAAAGCATGTATCTT (double strand) [2EBS-S10] |  | binding result [2]: binds more weakly; binding result [3]: binds |
| TGTATACATGCAAAAAAGCATGTATACA (double strand) [TGT-S10] | binds |  |
| AAGATACATGCGAAAACGCATGTATCTT (double strand) [GCG-S10] | binds |  |
| AAGATACATTAGGGGGGTAATGTATCTT (double strand) [TA-S10] | binds |  |
| GTTGTTTGGGATTCAAGGGGCATGTATCTTGAATCC (double strand) [ERF1] |  | binding result [4]: binds more weakly; binding result [5]: binds more weakly; binding result [2]: binds more weakly; binding result [6]: binds more weakly; binding result [7]: binds more weakly; binding result [3]: binds more weakly |
| AAGATACATTGAGGGGTCAATGTATCTT (double strand) [TCA-S10] | binds |  |
| AAGATACATGCAAAAAAAAGCATGTATCTT (double strand) [2EBS-S12] | binds more weakly |  |
| GTTGTTTGGGATTCAAGGGGCATGTATCTTGAAT (double strand) [ERF1 3-2] | binds |  |
| AAGATACATGCAATTAAGCATGTATCTT (double strand) [TT-S10] | binds |  |
| GTTGTTTGGGATTCAAGGGGCATGTATCTTGA (double strand) [ERF1 3-4] | binds |  |
| GTTGTTTGGGAGTGAAGGGGCATGTATCTTGAATCC (double strand) [ERF1 m2] | binds |  |
| GTTGTTTGGGATTGAAGGGGCATGTATCTTGAATCC (double strand) [ERF1 m1] | binds |  |
